Binding data for four molecules are collected here from paper PMC4911381.

Protein sequences, listed by entry. Tags and fused reporters are not part of them.
UniProt P42227: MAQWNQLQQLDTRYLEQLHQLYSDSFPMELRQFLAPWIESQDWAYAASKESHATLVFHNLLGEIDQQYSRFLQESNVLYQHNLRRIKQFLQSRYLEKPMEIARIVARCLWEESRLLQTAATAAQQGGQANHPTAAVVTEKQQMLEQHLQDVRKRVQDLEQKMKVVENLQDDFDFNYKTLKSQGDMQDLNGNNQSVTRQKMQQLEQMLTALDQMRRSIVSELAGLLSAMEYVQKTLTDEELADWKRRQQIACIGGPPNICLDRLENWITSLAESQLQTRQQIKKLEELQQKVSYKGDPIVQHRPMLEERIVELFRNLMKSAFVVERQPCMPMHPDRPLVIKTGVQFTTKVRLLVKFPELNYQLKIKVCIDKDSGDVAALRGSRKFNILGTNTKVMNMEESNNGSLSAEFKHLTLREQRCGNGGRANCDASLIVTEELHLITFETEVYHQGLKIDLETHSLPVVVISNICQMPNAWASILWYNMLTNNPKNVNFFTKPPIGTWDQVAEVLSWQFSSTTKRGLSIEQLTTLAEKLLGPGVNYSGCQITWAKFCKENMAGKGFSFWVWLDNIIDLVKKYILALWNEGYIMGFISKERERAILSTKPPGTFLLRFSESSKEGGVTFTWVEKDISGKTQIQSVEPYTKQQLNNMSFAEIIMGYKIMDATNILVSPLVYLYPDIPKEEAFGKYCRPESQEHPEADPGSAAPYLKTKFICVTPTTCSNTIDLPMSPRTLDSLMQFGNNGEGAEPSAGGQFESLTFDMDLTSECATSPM

No constants are given. Whether binding was seen depends on the method and setting. In cells and extracts the contact can be indirect. Some entries that bind do so weakly or less than the wild type.

In assay [1] the target is T1, stathmin (mouse (endogenous in sciatic nerve)) (UniProt P54227).
T1 sequence: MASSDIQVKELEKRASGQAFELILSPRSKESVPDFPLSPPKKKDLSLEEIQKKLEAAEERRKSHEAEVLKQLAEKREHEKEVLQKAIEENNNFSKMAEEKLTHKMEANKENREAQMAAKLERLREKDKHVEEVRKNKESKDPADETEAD
Put plainly: co-IP; anti-stathmin (rabbit) antibody and Protein A-agarose on sciatic nerve lysates of 34-day-old wild-type, Nefl-/-, pmn and Nefl-/-;pmn mice; IP buffer 50 mM Tris pH 7.4, 150 mM NaCl, 1 % Triton X-100, 2 mM EDTA; overnight at 4 °C; blots for stathmin, Stat3 and NFL; IgG control.

The target of assay [2] is T2, stathmin (mouse (endogenous in NSC34)) (UniProt P54227).
T2 sequence: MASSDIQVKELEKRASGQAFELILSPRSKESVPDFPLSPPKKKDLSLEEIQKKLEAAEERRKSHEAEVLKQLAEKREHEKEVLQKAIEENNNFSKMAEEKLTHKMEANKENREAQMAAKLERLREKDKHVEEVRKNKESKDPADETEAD
Put plainly: co-IP; anti-stathmin (rabbit) antibody and Protein A-agarose on NSC34 cell lysates, mock transfected (only lipofectamine) or transfected with the NFL overexpression vector; IP buffer 50 mM Tris pH 7.4, 150 mM NaCl, 1 % Triton X-100, 2 mM EDTA; overnight at 4 °C; blots for stathmin, Stat3 and NFL; IgG control.

As to “signal transducer and activator of transcription-3 (from UniProt P42227 1-770)”, the binding entry in assay [1] is on record as “binds”.
In the case of Stat3 (from UniProt P42227 1-770), the binding result in assay [2] is recorded as “binds”.

B1: neurofilament-light chain (protein, UniProt P08551 1-543)
chain: MSSFGYDPYFSTSYKRRYVETPRVHISSVRSGYSTARSAYSSYSAPVSSSLSVRRSYSSSSGSLMPSLENLDLSQVAAISNDLKSIRTQEKAQLQDLNDRFASFIERVHELEQQNKVLEAELLVLRQKHSEPSRFRALYEQEIRDLRLAAEDATNEKQALQGEREGLEETLRNLQARYEEEVLSREDAEGRLMEARKGADEAALARAELEKRIDSLMDEIAFLKKVHEEEIAELQAQIQYAQISVEMDVSSKPDLSAALKDIRAQYEKLAAKNMQNAEEWFKSRFTVLTESAAKNTDAVRAAKDEVSESRRLLKAKTLEIEACRGMNEALEKQLQELEDKQNADISAMQDTINKLENELRSTKSEMARYLKEYQDLLNVKMALDIEIAAYRKLLEGEETRLSFTSVGSITSGYSQSSQVFGRSAYSGLQSSSYLMSARSFPAYYTSHVQEEQTEVEETIEATKAEEAKDEPPSEGEAEEEEKEKEEGEEEEGAEEEEAAKDESEDTKEEEEGGEGEEEDTKESEEEEKKEESAGEEQVAKKKD
As for B1, the binding result in assay [2] and in assay [1] was “binds” throughout.

B2: NFL (overexpressed) (protein, UniProt P08551 1-543)
chain: MSSFGYDPYFSTSYKRRYVETPRVHISSVRSGYSTARSAYSSYSAPVSSSLSVRRSYSSSSGSLMPSLENLDLSQVAAISNDLKSIRTQEKAQLQDLNDRFASFIERVHELEQQNKVLEAELLVLRQKHSEPSRFRALYEQEIRDLRLAAEDATNEKQALQGEREGLEETLRNLQARYEEEVLSREDAEGRLMEARKGADEAALARAELEKRIDSLMDEIAFLKKVHEEEIAELQAQIQYAQISVEMDVSSKPDLSAALKDIRAQYEKLAAKNMQNAEEWFKSRFTVLTESAAKNTDAVRAAKDEVSESRRLLKAKTLEIEACRGMNEALEKQLQELEDKQNADISAMQDTINKLENELRSTKSEMARYLKEYQDLLNVKMALDIEIAAYRKLLEGEETRLSFTSVGSITSGYSQSSQVFGRSAYSGLQSSSYLMSARSFPAYYTSHVQEEQTEVEETIEATKAEEAKDEPPSEGEAEEEEKEKEEGEEEEGAEEEEAAKDESEDTKEEEEGGEGEEEDTKESEEEEKKEESAGEEQVAKKKD
B2: the binding result in assay [2] is given as “binds”.
